This note sets out measurements from publication PMC7790824.

Results are given in words; binding and its absence hold for the method and conditions named. In cells and extracts the contact can be indirect. Some results given as binding are weak or reduced against the parent protein; the word gives no strength.

In the experiment the target is T1, TAK1 (mouse (endogenous in primary cortical neurons)), Q62073.
T1 chain: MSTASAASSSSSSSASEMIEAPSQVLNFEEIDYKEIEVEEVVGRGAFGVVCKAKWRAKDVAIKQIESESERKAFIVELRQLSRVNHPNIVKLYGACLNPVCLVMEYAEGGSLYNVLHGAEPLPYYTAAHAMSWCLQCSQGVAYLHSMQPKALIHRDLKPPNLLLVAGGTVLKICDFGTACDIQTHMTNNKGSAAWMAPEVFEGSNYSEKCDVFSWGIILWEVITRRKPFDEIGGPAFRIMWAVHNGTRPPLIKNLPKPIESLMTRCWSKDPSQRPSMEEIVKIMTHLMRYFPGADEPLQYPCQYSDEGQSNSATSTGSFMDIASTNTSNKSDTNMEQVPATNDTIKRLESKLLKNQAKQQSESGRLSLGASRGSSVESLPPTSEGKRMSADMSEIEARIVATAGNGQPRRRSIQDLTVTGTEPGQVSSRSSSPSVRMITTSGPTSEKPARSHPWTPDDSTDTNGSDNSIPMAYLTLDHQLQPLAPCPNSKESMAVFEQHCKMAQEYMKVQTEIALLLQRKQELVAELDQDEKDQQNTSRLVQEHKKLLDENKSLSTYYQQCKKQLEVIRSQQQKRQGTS
Kind of experiment: co-IP; SAH (hemoglobin-treated) primary neurons lysed with RIPA buffer; precleared extracts incubated with 1 ug of TRAF3 antibody, TAK1 antibody or normal mouse IgG and protein A/G-agarose beads at 4 °C overnight; blotted with TAK1 and TRAF3 antibodies. Conditions: remark: other sources report otherwise.

B1: TRAF3, Q60803 1-567 (protein)
chain: MESSKKMDAAGTLQPNPPLKLQPDRGAGSVLVPEQGGYKEKFVKTVEDKYKCEKCRLVLCNPKQTECGHRFCESCMAALLSSSSPKCTACQESIIKDKVFKDNCCKREILALQVYCRNEGRGCAEQLTLGHLLVHLKNECQFEELPCLRADCKEKVLRKDLRDHVEKACKYREATCSHCKSQVPMIKLQKHEDTDCPCVVVSCPHKCSVQTLLRSELSAHLSECVNAPSTCSFKRYGCVFQGTNQQIKAHEASSAVQHVNLLKEWSNSLEKKVSLLQNESVEKNKSIQSLHNQICSFEIEIERQKEMLRNNESKILHLQRVIDSQAEKLKELDKEIRPFRQNWEEADSMKSSVESLQNRVTELESVDKSAGQAARNTGLLESQLSRHDQMLSVHDIRLADMDLRFQVLETASYNGVLIWKIRDYKRRKQEAVMGKTLSLYSQPFYTGYFGYKMCARVYLNGDGMGKGTHLSLFFVIMRGEYDALLPWPFKQKVTLMLMDQGSSRRHLGDAFKPDPNSSSFKKPTGEMNIASGCPVFVAQTVLENGTYIKDDTIFIKVIVDTSDLPDP
As for B1, the binding entry is listed as “binds”.
